These are yes or no findings as the source states them, for the method shown. In cells and extracts the contact can be indirect. Some results given as binding are weak or reduced against the parent protein; the word gives no strength.

Sequences of proteins named here, by UniProt entry; tags and fusion partners are left off. Residues count along the entry.
UniProt P20491, residues 19-86: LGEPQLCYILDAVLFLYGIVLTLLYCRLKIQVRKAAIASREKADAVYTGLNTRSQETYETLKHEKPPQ
UniProt P29351: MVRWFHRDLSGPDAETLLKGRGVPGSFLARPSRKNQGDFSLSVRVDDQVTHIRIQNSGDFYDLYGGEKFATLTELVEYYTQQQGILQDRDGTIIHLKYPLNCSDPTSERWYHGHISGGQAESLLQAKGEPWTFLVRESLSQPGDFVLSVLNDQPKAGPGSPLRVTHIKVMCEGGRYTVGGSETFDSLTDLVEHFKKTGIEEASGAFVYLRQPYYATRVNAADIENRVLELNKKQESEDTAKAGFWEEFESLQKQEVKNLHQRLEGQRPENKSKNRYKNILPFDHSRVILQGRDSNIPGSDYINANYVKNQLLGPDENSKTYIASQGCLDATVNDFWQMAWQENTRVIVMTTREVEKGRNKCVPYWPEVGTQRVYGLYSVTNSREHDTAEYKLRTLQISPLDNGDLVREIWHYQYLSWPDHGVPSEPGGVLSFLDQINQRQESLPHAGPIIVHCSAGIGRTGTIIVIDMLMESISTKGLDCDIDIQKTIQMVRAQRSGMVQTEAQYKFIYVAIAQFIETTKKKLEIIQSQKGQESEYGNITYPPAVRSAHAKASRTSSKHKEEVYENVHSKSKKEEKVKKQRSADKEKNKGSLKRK

The target of test [1] is Fc-receptor common γ subunit (FcRγ) (mouse (endogenous in BMMs)) (UniProt P20491). In words: co-IP; endogenous proteins from lysates of mouse BMMs (WT or DJ-1 KO) starved 5 h and stimulated with RANKL (100 ng/ml), with or without H2O2 (100 μM); lysis in 20 mM HEPES pH 7.5, 150 mM NaCl, 1% Nonidet P-40, 60 mM octyl β-glucoside; overnight at 4 °C with specific antibodies, protein A/G-agarose; immunoblot.

For test [2], the target named is T1, TNF receptor-associated factor 6 (TRAF6) (mouse (endogenous in BMMs)) (UniProt P70196).
T1 sequence: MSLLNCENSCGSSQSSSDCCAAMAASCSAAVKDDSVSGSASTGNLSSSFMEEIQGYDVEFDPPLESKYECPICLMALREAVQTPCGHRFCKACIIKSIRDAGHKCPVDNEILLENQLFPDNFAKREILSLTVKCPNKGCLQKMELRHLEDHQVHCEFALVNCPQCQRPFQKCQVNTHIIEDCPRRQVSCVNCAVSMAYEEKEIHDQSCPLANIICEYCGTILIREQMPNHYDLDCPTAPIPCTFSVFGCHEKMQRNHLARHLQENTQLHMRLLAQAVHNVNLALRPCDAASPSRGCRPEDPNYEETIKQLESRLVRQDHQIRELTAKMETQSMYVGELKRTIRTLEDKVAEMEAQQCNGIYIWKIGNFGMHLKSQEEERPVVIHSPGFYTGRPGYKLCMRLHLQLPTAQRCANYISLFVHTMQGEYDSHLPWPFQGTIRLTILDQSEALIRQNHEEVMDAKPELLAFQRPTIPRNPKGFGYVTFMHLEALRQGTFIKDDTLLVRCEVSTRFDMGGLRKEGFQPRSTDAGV
Described as above.

For “Src homology region 2 domain-containing phosphatase-1 (SHP-1) (from UniProt P29351 1-595) (enzyme)”, the binding result in test [1] and in test [2] was “binds” each time.

Values taken from paper PMC5688089.
